# Some peptides are written in HELM: one residue between dots, names in brackets for other building blocks, links after the first $.
# Experiment: general procedure: Boc solid-phase peptide synthesis; Boc-Gly-PAM-resin; DCC; BOP reagent
# Settings: whole synthesis, scale 0.5 mmol
substance,measurement,value
PEPTIDE1{H.V.D.A.I.F.T.N.S.Y.R.K.V.L.A.Q.L.S.A.R.K.L.L.Q.D.I.L.S.R.Q.Q.G}$$$$V2.0,crude mass,420 mg
same,isolated mass,34 mg

# From patent US5696089A (Roche Vitamins Inc., priority 1995, dated 1997)
